Data from PubChem BioAssay (NCATS).
This list was built around the results that the source calls inconclusive (neither active nor inactive); the mix of calls is not that of the screen. Potencies of inconclusive entries are doubtful fits and often do not repeat. Calls of active or inactive are those of the source. Calls come from the whole dose curve; as a rule, active = well fitted cell-killing curve with a large enough effect; inconclusive = small, poorly fitted or top-dose-only effect; inactive = no such curve, though single readings can be large or run the other way. Bridge positions count the residues as written; N and C are the ends. Square brackets hold non-standard residues; d marks the D form. Peptide text beside a SMILES is read from it. * marks the point of attachment. ξ: configuration not given here. Octanoyl(6-Me) = CCC(C)CCCCC(=O)*; ξThr(3R) = C[C@@H](O)C(N)C(=O)O; dDab = NCC[C@@H](N)C(=O)O; Dab = NCC[C@H](N)C(=O)O
Potency is the fitted concentration of half-maximal effect.

Assay: Quantitative High-Throughput drug screen in 47 multiple myeloma cell lines against the NCATS MIPE library collection: NCIH929_DSMZ cell viability assay (AID 1918978); note: nearly all actives have a fitted effect of over 35% in size
Details: NCI-H929 myeloma viability, CellTiter-Glo ATP, 48 h; series mostly up to 45.8 µM
Source text: PI: Beverly A. Mock Ph.D.
Laboratory of Cancer Biology and Genetics,
Center for Cancer Research, National Cancer Institute,
National Institute of Health, Bethesda, Maryland
Drug resistance and disease progression are common in multiple myeloma (MM) patients, underscoring the need for new therapeutic combinations. […] We hypothesized that effective combinations would reduce MYC expression and enhance p16 activity. […] These preclinical data identify potentially useful drug combinations for evaluation in drug-resistant MM and reveal potential mechanisms of combined drug sensitivity.
Described herein is the primary MIPE qHTS used to cherrypick compounds. Validated compounds were then further tested for potential synergistic activiy.
[1] Peat TJ, Gaikwad SM, Dubois W, Gyabaah-Kessie N, Zhang S, Gorjifard S, Phyo Z, Andres M, Hughitt VK, Simpson RM, Miller MA, Girvin AT, Taylor A, Williams D, D'Antonio N, Zhang Y, Rajagopalan A, Flietner E, Wilson K, Zhang X, Shinn P, Klumpp-Thomas C, McKnight C, Itkin Z, Chen L, Kazandijian D, Zhang J, Michalowski AM, Simmons JK, Keats J, Thomas CJ, Mock BA. Drug combinations identified by high-throughput screening promote cell cycle transition and upregulate Smad pathways in myeloma. Cancer Lett. 2023 Aug 1;568:216284. doi: 10.1016/j.canlet.2023.216284. Epub 2023 Jun 24. PMID: 37356470; PMCID: PMC10408729.
SEQUENCE No. (e.g., 1, 2, 3, etc.); […] (e.g., Cells, Incubation, Reagent, etc.); VALUE and DESCRIPTION.
1; Cells; 5 uL; white, solid bottom 1536-well Greiner assay plate.
2; Compounds; 23 nL; Kalypsis pin tool (Wako USA) equipped with a 1536-well pin head to transfer to the assay plates.
3; Incubation; 48 hours; 37C incubation.
4; Reagent;5uL; CellTiter Glo (Promega).
5; Detector; 425V; Luminescence; Viewlux PerkinElmer.
NOTES (numbers refer to Sequence numbers above)
1. The cell-based screening methods employed in this study were like those previously published. Briefly, the corresponding myeloma cell lines were screened in 1,536-well plates with 500 cells, 5-uL per well for inhibition of cell viability (assessed by measuring ATP levels with CellTiterGlo).
2. NCATS MIPE 4.0 library of approved and investigational drugs were added using the Kalypsis pin tool. Wells treated with DMSO only for 100% viability and media only for 0% viability were used as controls.
3. The assay plates were covered and incubated for 48 hours in a 37C, 5% CO2 incubator with controlled humidity.
4. After 48 hours, CellTilter-GloTM luminescent substrate mix (Promega) reagent was added to the assay plate and plates we incubated for 5 min at room temperature.
5. Signal was measured as median relative luminescence units on a ViewLux (PerkinElmer) multiplate reader.
[1] Heske CM, Davis MI, Baumgart JT, Wilson K, Gormally MV, Chen L, Zhang X, Ceribelli M, Duveau DY, Guha R, Ferrer M, Arnaldez FI, Ji J, Tran HL, Zhang Y, Mendoza A, Helman LJ, Thomas CJ. Matrix Screen Identifies Synergistic Combination of PARP Inhibitors and Nicotinamide Phosphoribosyltransferase (NAMPT) Inhibitors in Ewing Sarcoma. Clin Cancer Res. 2017 Dec 1;23(23):7301-7311. doi: 10.1158/1078-0432.CCR-17-1121. Epub 2017 Sep 12. PMID: 28899971; PMCID: PMC6636827.
For `OC(CN1CCN(c2cccc(Cl)c2)CC1)C(c1ccccc1)c1ccccc1` (stereo not given), the Potency was “inactive”. For `OC[C@H]1O[C@@H](Oc2cc(O)cc(C=Cc3ccc(O)cc3)c2)[C@H](O)[C@@H](O)[C@H]1O`, the Potency was inconclusive: 20.9 µM [cytotoxic, partial curve, poor fit]. With `CC(=O)OCC(=O)[C@@]12N=C(C)O[C@H]1C[C@H]1[C@@H]3CCC4=CC(=O)C=C[C@]4(C)[C@@H]3[C@@H](O)C[C@@]12C` the Potency was inconclusive: 26.4 µM [cytotoxic, single point]. For `CC1CCC(C(=O)N(c2cc(C#CC(C)(C)C)sc2C(=O)O)C2CCC(O)CC2)CC1` (stereo not given), the Potency was inconclusive: 23.5 µM [cytotoxic, partial curve]. With `O=C(O)C1=NC(C(=O)O)CC(C=CN2c3cc(O)c(OC4OC(CO)C(O)C(O)C4O)cc3CC2C(=O)O)=C1` (stereo not given) the Potency was “inactive”. In the case of `CC(=O)OCC(=O)[C@@]1(O)CC[C@H]2[C@@H]3CCC4=CC(=O)C=C[C@]4(C)[C@@H]3[C@@H](O)C[C@@]21C`, the Potency is reported as active: 0.187 µM. For `CC#CCn1c(N2CCC[C@@H](N)C2)nc2c1c(=O)n(Cc1nc(C)c3ccccc3n1)c(=O)n2C`, the Potency was inconclusive: 33.2 µM [cytotoxic, single point]. With `Clc1ccc(C(Cn2ccnc2)OCc2ccsc2Cl)c(Cl)c1` (stereo not given) the Potency was inconclusive: 26.4 µM [cytotoxic, single point]. In the case of `CO[C@@H](C(=O)N1Cc2[nH]nc(NC(=O)c3ccc(N4CCN(C)CC4)cc3)c2C1)c1ccccc1`, the Potency is reported as active: 11.8 µM. For `C[C@]12CC[C@H](O)CC1=CC[C@@H]1[C@H]2CC[C@]2(C)C(c3cccnc3)=CC[C@H]12`, the Potency was inconclusive: 3.23 µM [cytotoxic, partial curve, poor fit]. For `Nc1nc2[nH]cc(CCc3ccc(C(=O)N[C@@H](CCC(=O)O)C(=O)O)cc3)c2c(=O)[nH]1`, the Potency was “inactive”. In the case of `NC(=O)OCC(COC(N)=O)c1ccccc1`, the Potency is reported as “inactive”. For `CCCN[C@H]1CCc2nc(N)sc2C1`, the Potency was inconclusive: 6.62 µM [cytotoxic, partial curve, poor fit]. With `CCC(C)CCCCC(=O)N[C@@H](CCN)C(=O)NC(C(=O)N[C@H](CCN)C(=O)N[C@@H]1CCNC(=O)C([C@@H](C)O)NC(=O)[C@@H](CCN)NC(=O)[C@@H](CCN)NC(=O)[C@@H](CC(C)C)NC(=O)[C@H](Cc2ccccc2)NC(=O)[C@H](CCN)NC1=O)[C@@H](C)O` (stereo partly drawn) ({Octanoyl(6-Me)}-[Dab][ξThr(3R)][dDab][dDab][Dab]F[dL][dDab][dDab][ξThr(3R)]; lactam 4-C) the Potency was “inactive”. In the case of `CC1COC2(CCN(c3nc(=O)c4cc(C(F)(F)F)cc([N+](=O)[O-])c4s3)CC2)O1` (stereo not given), the Potency is reported as “inactive”. In the case of `C[C@]12CC[C@H](O)CC1=CCC1C2CC[C@]2(C)C(n3cnc4ccccc43)=CCC12` (stereo not given in full), the Potency is reported as inconclusive: 26.4 µM [cytotoxic, single point]. With `CC(C)OC(=O)C(C(=O)OC(C)C)=C1SC=CS1` the Potency was “inactive”. With `COc1ccc(-c2nc3ccc(C4=NNC(=O)CC4C)cc3[nH]2)cc1` (stereo not given) the Potency was inconclusive: 37.2 µM [cytotoxic, single point]. For `O=C1Nc2ccc(Cl)cc2C(C#CC2CC2)(C(F)(F)F)O1` (stereo not given), the Potency was inconclusive: 33.2 µM [cytotoxic, single point]. For `CN(C)CCOc1cc(-c2cn[nH]c2)ccc1NC(=O)C1COc2ccccc2O1` (stereo not given), the Potency was active: 18.7 µM. In the case of `COC1CCC(N(C(=O)C2CCC(C)CC2)c2cc(C3=CCCCC3)sc2C(=O)O)CC1` (stereo not given), the Potency is reported as active: 23.5 µM. In the case of `C[C@@H]1CCO[C@H]2Cn3cc(C(=O)NCc4ccc(F)cc4F)c(=O)c(O)c3C(=O)N12`, the Potency is reported as inconclusive: 37.2 µM [cytotoxic, single point]. For `C#C[C@]1(O)CC[C@H]2[C@H]3CCc4cc(OC)ccc4[C@H]3CC[C@@]21C`, the Potency was inconclusive: 14.8 µM [cytotoxic, partial curve]. With `NCC1CCC(C(=O)O)CC1` (stereo not given) the Potency was “inactive”. In the case of `COc1cc(C(=O)NC2CCN(C)CC2)ccc1Nc1ncc2c(n1)N(C1CCCC1)CCC(=O)N2C(C)C`, the Potency is reported as active: 10.5 µM. In the case of `O=c1ccc2ccc(O)c(O)c2o1`, the Potency is reported as inconclusive: 8.33 µM [cytotoxic, partial curve]. For `O=c1[nH]c(=O)n([C@H]2C[C@@H](O)[C@@H](CO)O2)cc1I`, the Potency was “inactive”. In the case of `O=C1c2ccccc2-c2n[nH]c3cccc1c23`, the Potency is reported as inconclusive: 23.5 µM [cytotoxic, partial curve]. In the case of `CCN(C(=O)c1c(O)c2c(Cl)cccc2n(C)c1=O)c1ccccc1`, the Potency is reported as “inactive”. With `O=c1cc(-c2ccc(O)c(O)c2)oc2cc(O)cc(O)c12` the Potency was inconclusive: 37.2 µM [cytotoxic, single point]. In the case of `CCCCCCCCCCCCCCCC(=O)OC[C@@H](NC(=O)C(Cl)Cl)[C@H](O)c1ccc([N+](=O)[O-])cc1`, the Potency is reported as inconclusive: 0.0026 µM [rising, full curve, poor fit]. For `CN(C)c1ccc(C2Nc3ccc4ccccc4c3C3=C2C(=O)CC(C)(C)C3)cc1Br` (stereo not given), the Potency was inconclusive: 10.5 µM [cytotoxic, partial curve, poor fit]. With `N[C@@]1(C(=O)O)CS(=O)(=O)[C@H]2[C@H](C(=O)O)[C@H]21` the Potency was inconclusive: 9.35 µM [cytotoxic, full curve]. In the case of `CCOC(=O)c1c(C)n(C)c2ccc(O)cc12`, the Potency is reported as “inactive”. In the case of `CCCCOc1ccc(C(=O)Nc2ccc(F)cc2F)cc1`, the Potency is reported as “inactive”. With `COc1nccc(-c2c(-c3ccc(F)cc3)ncn2C2CCC(O)CC2)n1` (stereo not given) the Potency was inconclusive: 7.43 µM [cytotoxic, partial curve, poor fit]. For `NC(=O)c1cccc(-c2cc(Nc3ccc(OC(F)(F)F)cc3)ncn2)c1`, the Potency was inconclusive: 20.9 µM [cytotoxic, partial curve]. With `CC(C)(C)[N+]([O-])=Cc1ccc(S(=O)(=O)O)cc1S(=O)(=O)O` the Potency was “inactive”. With `O=C(O)c1cn(-c2ccc(F)cc2)c2cc(N3CCNCC3)c(F)cc2c1=O` the Potency was “inactive”. For `CC1(C)O[C@H]2C[C@@H]3[C@H]4CCC5=CC(=O)C=C[C@]5(C)[C@@]4(F)[C@@H](O)C[C@]3(C)[C@]2(C(=O)CO)O1`, the Potency was active: 26.4 µM.
